These are yes or no findings as the source states them, for the method shown. In cells and extracts the contact can be indirect. Some entries that bind do so weakly or less than the wild type.
Target: enolase 1 (mouse (endogenous in 4T1.2)) (UniProt P17182)
Experiment: co-IP; protein extracts from 4T1.2 cells, precleared with protein A agarose beads and rabbit IgG; overnight immunoprecipitation with beads conjugated with anti-Eno1 antibodies; washed three times with PBS; Western blot for Eno1 and CD44

Chains of the proteins cited; added tags and fusions are not shown.
UniProt P17182: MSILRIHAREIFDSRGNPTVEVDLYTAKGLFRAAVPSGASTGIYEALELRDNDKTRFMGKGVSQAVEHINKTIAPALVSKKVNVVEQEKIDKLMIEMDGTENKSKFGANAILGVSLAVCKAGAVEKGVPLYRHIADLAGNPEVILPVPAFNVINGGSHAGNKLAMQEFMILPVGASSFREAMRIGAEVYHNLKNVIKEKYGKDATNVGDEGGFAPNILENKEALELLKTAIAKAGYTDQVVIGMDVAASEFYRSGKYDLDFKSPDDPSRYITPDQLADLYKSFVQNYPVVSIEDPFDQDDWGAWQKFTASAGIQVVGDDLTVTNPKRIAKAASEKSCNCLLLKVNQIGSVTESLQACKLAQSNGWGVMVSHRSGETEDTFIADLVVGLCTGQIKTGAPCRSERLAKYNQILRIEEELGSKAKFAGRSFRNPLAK

B1: CD44 (receptor, UniProt P15379 23-778)
chain: QIDLNVTCRYAGVFHVEKNGRYSISRTEAADLCQAFNSTLPTMDQMKLALSKGFETCRYGFIEGNVVIPRIHPNAICAANHTGVYILVTSNTSHYDTYCFNASAPPEEDCTSVTDLPNSFDGPVTITIVNRDGTRYSKKGEYRTHQEDIDASNIIDDDVSSGSTIEKSTPEGYILHTYLPTEQPTGDQDDSFFIRSTLATIASTVHSKSHAAAQKQNNWIWSWFGNSQSTTQTQEPTTSATTALMTTPETPPKRQEAQNWFSWLFQPSESKSHLHTTTKMPGTESNTNPTGWEPNEENEDETDTYPSFSGSGIDDDEDFISSTIATTPRVSARTEDNQDWTQWKPNHSNPEVLLQTTTRMADIDRISTSAHGENWTPEPQPPFNNHEYQDEEETPHATSTTPNSTAEAAATQQETWFQNGWQGKNPPTPSEDSHVTEGTTASAHNNHPSQRITTQSQEDVSWTDFFDPISHPMGQGHQTESKDTDSSHSTTLQPTAAPNTHLVEDLNRTGPLSVTTPQSHSQNFSTLHGEPEEDENYPTTSILPSSTKSSAKDARRGGSLPTDTTTSVEGYTFQYPDTMENGTLFPVTPAKTEVFGETEVTLATDSNVNVDGSLPGDRDSSKDSRGSSRTVTHGSELAGHSSANQDSGVTTTSGPMRRPQIPEWLIILASLLALALILAVCIAVNSRRRCGQKKKLVINGGNGTVEDRKPSELNGEASKSQEMVHLVNKEPSETPDQCMTADETRNLQSVDMKIGV
binding: binds

From article PMC9065181
